From EP1102769B1, “TRICYCLIC CARBOXAMIDES” (SmithKline Beecham plc, priority 1998, dated 2000)
Some entries share one result that the patent states for a list of compounds.

Target: novel receptor obtainable from rat forebrain tissue
Assay: Radioligand binding assay, displacement of [3H]-Compound A
Details: competition with 20nM [3H]-Compound A, room temperature, 1 hour

Q: `COc1ccc(C(=O)Nc2ccc3c(c2)C2CCCN2CC3)cc1C(F)(F)F` (racemic) [Example 3, (+/-)N-(1,2,3,5,6,10b-hexahydropyrrolo[2,1-a]isoquinolin-9-yl)-4-methoxy-3-trifluoromethylbenzamide] was tested. Which pKi did it give?
A: Its pKi is “greater than 7.5”.

Q: For `COc1ccc(C(=O)Nc2ccc3c(c2)C2CCCN2CC3)cc1F.Cl` (single isomer, unassigned; (+)) [Example 39, (+)-3-Fluoro-N-(1,2,3,5,6,10b-hexahydropyrrolo[2,1-a]isoquinolin-9-yl)-4-methoxy-benzamide hydrochloride], which pKi is on record?
A: Its pKi is “greater than 7.5”.
